Data from article PMC8558480.
No constants are given. Whether binding was seen depends on the method and setting. Binding seen in cells or lysates may run through a third protein. Some binding calls cover weakened binding; strength is not graded here. Where a sequence is shown, tags or fusion partners need not be part of it.

The chains behind the UniProt entries cited, without tags or fusion partners.
UniProt Q6ZQ08: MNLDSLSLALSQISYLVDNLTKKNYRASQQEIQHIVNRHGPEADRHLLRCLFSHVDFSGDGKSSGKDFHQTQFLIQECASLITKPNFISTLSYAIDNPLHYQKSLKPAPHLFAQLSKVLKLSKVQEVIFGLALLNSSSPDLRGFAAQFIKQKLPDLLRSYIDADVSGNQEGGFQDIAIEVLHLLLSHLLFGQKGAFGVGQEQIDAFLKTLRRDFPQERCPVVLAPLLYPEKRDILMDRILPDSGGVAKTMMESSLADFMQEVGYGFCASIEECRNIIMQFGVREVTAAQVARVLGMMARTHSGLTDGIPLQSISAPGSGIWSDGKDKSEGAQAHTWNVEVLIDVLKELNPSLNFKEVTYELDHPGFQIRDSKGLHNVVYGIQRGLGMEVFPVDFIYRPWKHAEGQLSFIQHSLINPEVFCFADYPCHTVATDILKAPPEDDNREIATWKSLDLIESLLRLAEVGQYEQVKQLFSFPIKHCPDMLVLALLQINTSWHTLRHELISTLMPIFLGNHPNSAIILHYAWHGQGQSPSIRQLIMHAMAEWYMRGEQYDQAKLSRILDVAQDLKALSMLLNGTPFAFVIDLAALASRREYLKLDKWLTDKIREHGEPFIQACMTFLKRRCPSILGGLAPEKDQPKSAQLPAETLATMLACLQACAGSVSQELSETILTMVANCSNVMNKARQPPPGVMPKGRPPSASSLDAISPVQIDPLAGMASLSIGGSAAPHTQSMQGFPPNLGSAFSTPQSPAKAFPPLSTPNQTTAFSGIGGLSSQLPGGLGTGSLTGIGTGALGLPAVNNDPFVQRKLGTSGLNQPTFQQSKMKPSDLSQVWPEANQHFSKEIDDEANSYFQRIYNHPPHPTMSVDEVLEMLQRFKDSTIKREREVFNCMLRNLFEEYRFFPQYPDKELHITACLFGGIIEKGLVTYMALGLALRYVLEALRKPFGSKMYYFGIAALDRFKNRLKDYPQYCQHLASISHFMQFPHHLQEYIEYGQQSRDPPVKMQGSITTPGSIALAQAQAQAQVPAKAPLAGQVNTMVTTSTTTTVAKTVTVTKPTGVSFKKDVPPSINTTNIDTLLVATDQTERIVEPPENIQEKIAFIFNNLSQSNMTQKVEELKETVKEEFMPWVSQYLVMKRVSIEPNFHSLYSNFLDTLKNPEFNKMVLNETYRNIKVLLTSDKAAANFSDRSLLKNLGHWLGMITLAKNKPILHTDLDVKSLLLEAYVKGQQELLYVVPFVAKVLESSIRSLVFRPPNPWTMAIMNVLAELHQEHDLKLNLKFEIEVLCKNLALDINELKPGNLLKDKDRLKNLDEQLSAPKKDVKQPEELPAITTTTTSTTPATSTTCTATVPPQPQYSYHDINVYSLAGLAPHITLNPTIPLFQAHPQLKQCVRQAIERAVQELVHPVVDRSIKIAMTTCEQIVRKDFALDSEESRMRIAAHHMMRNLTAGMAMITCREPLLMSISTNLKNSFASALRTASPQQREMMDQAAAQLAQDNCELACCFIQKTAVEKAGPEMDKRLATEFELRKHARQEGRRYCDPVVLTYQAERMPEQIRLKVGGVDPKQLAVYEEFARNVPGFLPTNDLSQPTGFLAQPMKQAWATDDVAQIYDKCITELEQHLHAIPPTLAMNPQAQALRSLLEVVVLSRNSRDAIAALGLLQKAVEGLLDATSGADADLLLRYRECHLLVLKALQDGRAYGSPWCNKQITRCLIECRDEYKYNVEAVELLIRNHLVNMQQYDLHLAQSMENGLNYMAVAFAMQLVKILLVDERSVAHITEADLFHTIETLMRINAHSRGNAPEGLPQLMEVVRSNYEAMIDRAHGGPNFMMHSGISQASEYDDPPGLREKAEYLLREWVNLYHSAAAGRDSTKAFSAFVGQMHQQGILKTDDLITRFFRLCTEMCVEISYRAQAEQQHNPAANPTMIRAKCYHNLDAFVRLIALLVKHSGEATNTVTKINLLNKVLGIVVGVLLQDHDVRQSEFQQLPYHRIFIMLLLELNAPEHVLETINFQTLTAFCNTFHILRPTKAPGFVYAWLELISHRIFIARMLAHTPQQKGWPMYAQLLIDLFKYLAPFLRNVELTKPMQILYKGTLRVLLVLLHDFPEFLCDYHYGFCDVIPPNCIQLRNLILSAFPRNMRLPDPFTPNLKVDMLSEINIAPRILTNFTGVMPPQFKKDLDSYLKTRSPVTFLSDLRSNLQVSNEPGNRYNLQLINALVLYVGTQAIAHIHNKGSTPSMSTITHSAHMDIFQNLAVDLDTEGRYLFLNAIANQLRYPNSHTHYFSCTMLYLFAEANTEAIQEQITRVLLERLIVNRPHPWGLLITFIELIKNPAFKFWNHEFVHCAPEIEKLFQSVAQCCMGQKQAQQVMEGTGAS

Molecular target: T1, GST-tagged Tex13a (mouse) (UniProt A2AFS9)
T1 sequence: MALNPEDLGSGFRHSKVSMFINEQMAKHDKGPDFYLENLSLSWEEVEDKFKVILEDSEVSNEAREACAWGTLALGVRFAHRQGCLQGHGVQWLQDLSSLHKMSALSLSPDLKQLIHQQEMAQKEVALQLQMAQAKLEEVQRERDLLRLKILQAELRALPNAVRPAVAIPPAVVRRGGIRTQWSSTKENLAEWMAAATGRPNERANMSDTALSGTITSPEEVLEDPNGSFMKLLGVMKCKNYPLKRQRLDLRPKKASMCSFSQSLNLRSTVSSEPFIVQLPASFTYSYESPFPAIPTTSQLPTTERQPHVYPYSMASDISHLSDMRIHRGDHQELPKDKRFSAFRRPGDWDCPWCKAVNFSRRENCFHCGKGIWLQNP
Experiment: pull-down; GST-tagged Tex13a beads incubated for 3 h on ice with mouse testis homogenates in mild lysis buffer (50 mM Tris pH 7.4, 150 mM NaCl, 0.1% Triton X-100); anti-Cnot1 Western blot; only the target purified

## Endogenous Cnot1 of mouse testes (from UniProt Q6ZQ08 1-2375)
  binding: binds
